The supplement of paper PMC10849652
The other results are listed elsewhere or left out.

Chains of the proteins cited; added tags and fusions are not shown. Lines headed by an entry give the natural chain unless they say otherwise; changes in a name come on top.
UniProt Q01974, whole entry, looked up: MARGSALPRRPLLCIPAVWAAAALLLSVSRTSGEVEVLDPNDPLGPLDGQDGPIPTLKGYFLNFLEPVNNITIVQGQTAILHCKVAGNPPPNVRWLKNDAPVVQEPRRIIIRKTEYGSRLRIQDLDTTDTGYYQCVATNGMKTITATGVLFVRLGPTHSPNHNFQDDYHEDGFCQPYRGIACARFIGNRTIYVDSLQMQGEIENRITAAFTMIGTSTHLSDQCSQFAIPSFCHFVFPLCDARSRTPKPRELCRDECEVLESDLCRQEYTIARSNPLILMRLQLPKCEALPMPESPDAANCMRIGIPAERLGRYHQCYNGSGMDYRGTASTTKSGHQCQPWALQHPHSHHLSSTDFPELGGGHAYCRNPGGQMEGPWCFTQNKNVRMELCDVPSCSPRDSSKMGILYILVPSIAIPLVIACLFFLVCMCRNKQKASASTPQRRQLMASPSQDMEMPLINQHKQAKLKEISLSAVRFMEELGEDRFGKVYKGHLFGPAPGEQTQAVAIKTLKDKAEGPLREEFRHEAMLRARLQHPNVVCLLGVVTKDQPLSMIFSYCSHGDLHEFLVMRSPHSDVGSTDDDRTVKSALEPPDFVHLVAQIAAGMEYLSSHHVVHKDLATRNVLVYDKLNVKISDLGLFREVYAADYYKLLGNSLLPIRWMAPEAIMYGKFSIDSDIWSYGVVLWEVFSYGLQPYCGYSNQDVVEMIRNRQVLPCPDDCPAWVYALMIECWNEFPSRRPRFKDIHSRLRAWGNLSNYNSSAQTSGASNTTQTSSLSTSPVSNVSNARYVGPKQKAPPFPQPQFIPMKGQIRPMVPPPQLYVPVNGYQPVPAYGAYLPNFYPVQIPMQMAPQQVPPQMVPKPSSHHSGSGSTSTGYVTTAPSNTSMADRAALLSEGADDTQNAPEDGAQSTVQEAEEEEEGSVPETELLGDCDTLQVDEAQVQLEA
UniProt Q9H4A4: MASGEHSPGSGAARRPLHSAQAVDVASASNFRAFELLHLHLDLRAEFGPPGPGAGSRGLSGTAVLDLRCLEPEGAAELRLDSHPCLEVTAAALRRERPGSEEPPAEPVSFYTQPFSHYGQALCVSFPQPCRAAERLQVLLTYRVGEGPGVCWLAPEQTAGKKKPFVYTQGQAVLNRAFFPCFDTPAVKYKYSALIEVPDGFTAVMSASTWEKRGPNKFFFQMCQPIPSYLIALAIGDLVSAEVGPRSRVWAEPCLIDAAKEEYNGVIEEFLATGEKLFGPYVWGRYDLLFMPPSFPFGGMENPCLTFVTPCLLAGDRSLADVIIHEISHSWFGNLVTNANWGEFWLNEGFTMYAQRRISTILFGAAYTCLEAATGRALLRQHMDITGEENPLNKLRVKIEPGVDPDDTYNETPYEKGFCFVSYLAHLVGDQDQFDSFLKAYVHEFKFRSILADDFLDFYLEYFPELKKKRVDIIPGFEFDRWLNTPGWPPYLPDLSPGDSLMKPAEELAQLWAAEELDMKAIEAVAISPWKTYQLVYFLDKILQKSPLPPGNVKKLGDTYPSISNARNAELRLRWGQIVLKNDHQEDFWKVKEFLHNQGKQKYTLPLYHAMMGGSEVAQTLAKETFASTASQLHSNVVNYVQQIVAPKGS
UniProt P04844: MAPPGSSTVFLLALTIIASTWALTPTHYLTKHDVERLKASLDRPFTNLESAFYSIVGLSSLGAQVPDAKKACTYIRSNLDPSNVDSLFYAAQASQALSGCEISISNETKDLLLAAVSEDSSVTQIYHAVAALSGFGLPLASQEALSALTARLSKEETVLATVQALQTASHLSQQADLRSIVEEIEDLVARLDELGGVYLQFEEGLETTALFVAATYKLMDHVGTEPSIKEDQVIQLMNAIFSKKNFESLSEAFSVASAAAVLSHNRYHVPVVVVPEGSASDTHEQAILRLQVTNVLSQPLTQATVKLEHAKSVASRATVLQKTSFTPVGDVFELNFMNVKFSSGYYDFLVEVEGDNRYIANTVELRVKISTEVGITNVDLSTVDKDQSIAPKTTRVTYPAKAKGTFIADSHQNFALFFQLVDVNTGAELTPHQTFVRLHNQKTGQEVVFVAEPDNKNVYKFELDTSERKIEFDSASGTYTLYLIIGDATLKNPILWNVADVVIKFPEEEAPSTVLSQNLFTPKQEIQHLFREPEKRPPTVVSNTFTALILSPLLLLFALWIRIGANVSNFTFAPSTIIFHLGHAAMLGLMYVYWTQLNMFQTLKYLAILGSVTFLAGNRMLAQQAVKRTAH
UniProt Q13464: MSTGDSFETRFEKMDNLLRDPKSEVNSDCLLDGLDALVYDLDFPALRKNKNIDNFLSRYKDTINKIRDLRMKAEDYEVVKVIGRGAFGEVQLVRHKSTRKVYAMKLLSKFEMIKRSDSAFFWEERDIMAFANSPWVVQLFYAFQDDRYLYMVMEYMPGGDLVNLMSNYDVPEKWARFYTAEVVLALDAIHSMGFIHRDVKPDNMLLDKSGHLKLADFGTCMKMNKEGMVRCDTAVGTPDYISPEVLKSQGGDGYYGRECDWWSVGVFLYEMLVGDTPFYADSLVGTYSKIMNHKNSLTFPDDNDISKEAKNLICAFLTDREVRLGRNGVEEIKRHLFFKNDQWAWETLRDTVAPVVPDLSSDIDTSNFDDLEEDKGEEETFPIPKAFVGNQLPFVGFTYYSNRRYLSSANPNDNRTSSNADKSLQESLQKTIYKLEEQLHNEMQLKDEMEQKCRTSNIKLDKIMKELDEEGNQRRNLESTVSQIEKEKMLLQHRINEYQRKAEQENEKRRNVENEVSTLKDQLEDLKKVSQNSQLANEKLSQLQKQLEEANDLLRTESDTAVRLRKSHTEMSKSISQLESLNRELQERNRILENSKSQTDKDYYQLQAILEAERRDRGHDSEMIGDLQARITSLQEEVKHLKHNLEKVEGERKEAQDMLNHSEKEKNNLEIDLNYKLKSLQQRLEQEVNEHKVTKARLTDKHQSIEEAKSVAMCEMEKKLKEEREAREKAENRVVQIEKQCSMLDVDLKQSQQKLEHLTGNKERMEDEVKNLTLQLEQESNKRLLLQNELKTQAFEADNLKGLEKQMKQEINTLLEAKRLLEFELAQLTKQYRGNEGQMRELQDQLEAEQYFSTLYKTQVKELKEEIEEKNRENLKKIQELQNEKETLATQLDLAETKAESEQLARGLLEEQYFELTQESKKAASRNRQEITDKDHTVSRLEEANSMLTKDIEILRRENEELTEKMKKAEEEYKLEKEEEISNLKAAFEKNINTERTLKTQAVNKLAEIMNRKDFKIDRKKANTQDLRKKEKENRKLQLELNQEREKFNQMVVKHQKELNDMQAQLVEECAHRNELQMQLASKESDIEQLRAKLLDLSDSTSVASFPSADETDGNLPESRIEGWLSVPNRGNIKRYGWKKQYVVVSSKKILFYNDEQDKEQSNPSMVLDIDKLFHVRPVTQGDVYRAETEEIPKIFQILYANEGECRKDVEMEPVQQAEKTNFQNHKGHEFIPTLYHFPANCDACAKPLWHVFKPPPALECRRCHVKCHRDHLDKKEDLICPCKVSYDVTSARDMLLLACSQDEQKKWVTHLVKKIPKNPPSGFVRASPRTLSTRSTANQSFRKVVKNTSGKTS
UniProt P27694, whole entry, looked up: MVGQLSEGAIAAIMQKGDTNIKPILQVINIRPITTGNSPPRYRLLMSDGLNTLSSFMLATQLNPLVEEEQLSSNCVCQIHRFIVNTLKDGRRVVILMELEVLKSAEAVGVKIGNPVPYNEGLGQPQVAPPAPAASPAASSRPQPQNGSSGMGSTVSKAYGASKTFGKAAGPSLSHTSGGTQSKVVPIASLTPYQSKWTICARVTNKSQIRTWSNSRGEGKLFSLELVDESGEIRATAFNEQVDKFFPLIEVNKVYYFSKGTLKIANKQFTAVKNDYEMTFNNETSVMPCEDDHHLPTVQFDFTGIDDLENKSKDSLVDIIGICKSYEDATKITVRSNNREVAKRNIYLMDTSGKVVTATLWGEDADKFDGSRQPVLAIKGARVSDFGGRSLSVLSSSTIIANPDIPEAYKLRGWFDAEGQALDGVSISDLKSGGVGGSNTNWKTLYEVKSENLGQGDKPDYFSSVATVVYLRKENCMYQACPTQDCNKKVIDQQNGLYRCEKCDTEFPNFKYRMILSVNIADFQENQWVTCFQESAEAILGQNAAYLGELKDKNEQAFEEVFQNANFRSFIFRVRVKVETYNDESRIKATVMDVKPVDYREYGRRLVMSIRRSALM
UniProt Q15349, whole entry, looked up: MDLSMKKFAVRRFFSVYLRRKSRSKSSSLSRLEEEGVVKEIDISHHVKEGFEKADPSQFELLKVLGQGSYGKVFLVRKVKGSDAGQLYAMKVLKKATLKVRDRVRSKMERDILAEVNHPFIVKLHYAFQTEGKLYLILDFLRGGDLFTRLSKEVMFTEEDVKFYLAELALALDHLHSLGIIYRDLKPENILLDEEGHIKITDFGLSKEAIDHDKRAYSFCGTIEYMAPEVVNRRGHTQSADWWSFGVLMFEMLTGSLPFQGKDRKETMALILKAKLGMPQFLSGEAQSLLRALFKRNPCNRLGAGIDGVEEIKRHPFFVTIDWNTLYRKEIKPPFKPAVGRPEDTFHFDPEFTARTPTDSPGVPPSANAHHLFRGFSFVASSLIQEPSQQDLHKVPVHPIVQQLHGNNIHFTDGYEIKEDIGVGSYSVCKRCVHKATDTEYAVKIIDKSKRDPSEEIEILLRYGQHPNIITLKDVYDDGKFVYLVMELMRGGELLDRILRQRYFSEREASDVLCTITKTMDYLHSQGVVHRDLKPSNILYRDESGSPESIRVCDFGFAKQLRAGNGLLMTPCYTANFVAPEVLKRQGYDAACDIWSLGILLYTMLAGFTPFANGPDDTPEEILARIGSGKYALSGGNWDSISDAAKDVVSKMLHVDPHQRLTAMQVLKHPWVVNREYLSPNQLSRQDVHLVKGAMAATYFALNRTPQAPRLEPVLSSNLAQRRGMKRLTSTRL
UniProt Q9BWH6: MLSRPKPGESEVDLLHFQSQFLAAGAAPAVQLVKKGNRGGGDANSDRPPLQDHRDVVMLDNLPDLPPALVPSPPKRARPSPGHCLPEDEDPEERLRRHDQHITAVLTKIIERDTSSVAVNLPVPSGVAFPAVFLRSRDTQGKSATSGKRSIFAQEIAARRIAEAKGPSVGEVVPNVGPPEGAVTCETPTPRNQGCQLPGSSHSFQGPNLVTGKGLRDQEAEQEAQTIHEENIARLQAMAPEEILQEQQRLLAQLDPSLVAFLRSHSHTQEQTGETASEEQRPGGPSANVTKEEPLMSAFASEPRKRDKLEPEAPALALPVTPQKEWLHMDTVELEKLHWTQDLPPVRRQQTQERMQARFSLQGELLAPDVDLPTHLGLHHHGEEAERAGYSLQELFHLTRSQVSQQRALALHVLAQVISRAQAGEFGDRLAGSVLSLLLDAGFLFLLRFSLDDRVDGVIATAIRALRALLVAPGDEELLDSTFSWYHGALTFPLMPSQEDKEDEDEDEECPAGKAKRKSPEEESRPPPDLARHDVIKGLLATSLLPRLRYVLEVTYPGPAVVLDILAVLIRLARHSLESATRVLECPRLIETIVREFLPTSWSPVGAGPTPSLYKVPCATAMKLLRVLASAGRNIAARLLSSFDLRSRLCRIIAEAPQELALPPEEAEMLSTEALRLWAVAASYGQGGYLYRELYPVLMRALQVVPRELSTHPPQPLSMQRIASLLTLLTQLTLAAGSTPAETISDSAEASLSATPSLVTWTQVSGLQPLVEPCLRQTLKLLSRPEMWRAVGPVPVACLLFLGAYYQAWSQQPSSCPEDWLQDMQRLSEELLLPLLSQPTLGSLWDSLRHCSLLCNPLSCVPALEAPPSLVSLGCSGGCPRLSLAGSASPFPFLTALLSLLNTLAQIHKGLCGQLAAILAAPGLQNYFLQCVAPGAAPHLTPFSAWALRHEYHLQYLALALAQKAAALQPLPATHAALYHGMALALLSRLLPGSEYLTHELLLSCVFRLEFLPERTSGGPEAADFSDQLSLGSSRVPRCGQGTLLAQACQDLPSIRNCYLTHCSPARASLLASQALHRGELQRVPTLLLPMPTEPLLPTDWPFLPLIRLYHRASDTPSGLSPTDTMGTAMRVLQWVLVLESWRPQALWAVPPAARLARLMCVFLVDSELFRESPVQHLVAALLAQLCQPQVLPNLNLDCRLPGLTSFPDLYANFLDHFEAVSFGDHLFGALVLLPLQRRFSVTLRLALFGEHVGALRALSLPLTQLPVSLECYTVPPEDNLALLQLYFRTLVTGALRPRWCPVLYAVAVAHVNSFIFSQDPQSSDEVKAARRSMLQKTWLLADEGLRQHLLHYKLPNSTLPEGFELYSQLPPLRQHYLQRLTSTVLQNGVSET
UniProt P62070: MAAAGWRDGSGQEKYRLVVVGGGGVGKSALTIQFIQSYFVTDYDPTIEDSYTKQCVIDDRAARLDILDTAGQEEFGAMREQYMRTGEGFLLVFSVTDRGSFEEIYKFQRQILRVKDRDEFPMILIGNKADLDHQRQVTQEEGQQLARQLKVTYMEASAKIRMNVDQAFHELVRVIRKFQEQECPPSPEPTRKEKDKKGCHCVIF

Experiments:
Assay in all cases: log2 fold change, soluble protein after heating vs DMSO (PISA); higher = thermal stabilisation; K562 cells, 10 uM, 30 min; active = over 0.2 and 3.5 SD of the protein, either way, in both replicates (recomputed)
[1] = compound: CC1=C(C=C(C=C1)NC(=O)C2=CC(=CC=C2)C(C)(C)C#N)NC3=CC4=C(C=C3)N=CN(C4=O)C
In short: (§1)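 Thermal stability values are relative to control samples and come from duplicates. They are expressed as log2 fold changes. For measurement, K562 cells (2×10^6 cells/mL) received 10 μM compound for 30 min, and aliquots were heated for 3 min over 48°C-58°C, pooled, and extracted at 4°C in PBS with 0.5% NP-40. Soluble protein, the supernatant after 21,000xg for 90 min, was quantified by TMTpro 16plex LC-MS/MS with equalised channel sums.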

[2] = compound: CC1=C(C=C(C=C1)NC(=O)C2=CC(=CC=C2)N(C)C)NC(=O)C3=CC=C(C=C3)O
In short: as §1

[3] = compound: CC1=CC=C(C=C1)SC2=C3C=C(SC3=CN=C2)C(=O)N
In short: as §1

[4] = compound: CC1=NC(=CC=C1)C2=C(N=C(N2)C(C)(C)C)C3=CC4=NC=CN=C4C=C3
In short: as §1

Nexturastat A = compound: CCCCN(Cc1ccc(C(=O)NO)cc1)C(=O)Nc1ccccc1 [Nexturastat A]
In short: as §1

vemurafenib = compound: CCCS(=O)(=O)Nc1ccc(F)c(C(=O)c2c[nH]c3ncc(-c4ccc(Cl)cc4)cc23)c1F [vemurafenib]
In short: as §1

[5] = compound: CCCS(=O)(=O)Nc1ccc(F)c(C(=O)c2c[nH]c3ncc(Cl)cc23)c1F
In short: as §1

[6] = compound: CCCc1cc(C)[nH]c(=O)c1CNC(=O)c1cc(-c2ccnc(N3CCN(C)CC3)c2)cc2c1cnn2C(C)C
In short: as §1

givinostat = compound: CCN(CC)Cc1ccc2cc(COC(=O)Nc3ccc(C(=O)NO)cc3)ccc2c1 [givinostat]
In short: as §1

barasertib = compound: CCN(CCCOc1ccc2c(Nc3cc(CC(=O)Nc4cccc(F)c4)[nH]n3)ncnc2c1)CCOP(=O)(O)O [barasertib]
In short: as §1

Measured: log2 fold change

ROR2 (UniProt Q01974)
inactive: [1] 0.022 | [2] -0.061 | [3] 0.001 | [4] -0.009 | Nexturastat A -0.109 | vemurafenib 0.018 | [5] 0.007 | [6] 0.078 | givinostat 0.033 | barasertib 0.003

RPL7 (UniProt P18124)
inactive: [1] 0.047 | [2] 0.003 | [3] -0.082 | [4] -0.246 | Nexturastat A 0.442 | vemurafenib -0.308 | [5] -0.121 | [6] 0.248 | givinostat 0.219 | barasertib -0.211

RNPEP (UniProt Q9H4A4)
inactive: [1] 0.032 | [2] -0.024 | [3] 0.002 | [4] 0.023 | Nexturastat A -0.023 | vemurafenib 0.058 | [5] 0.052 | [6] -0.013 | givinostat -0.112 | barasertib 0.036

RPL11 (UniProt P62913)
inactive: [1] 0.005 | [2] 0.031 | [3] -0.058 | [4] -0.174 | Nexturastat A 0.354 | vemurafenib -0.251 | [5] -0.106 | [6] 0.267 | givinostat 0.102 | barasertib -0.122

RPL36 (UniProt Q9Y3U8)
inactive: [1] 0.032 | [2] -0.034 | [3] -0.026 | [4] -0.24 | Nexturastat A 0.373 | vemurafenib -0.222 | [5] -0.087 | [6] 0.231 | givinostat 0.08 | barasertib -0.181

RPS7 (UniProt P62081)
inactive: [1] 0.014 | [2] 0.022 | [3] -0.031 | [4] -0.064 | Nexturastat A 0.208 | vemurafenib -0.061 | [5] -0.022 | [6] 0.212 | givinostat 0 | barasertib -0.09

RPN2 (UniProt P04844)
inactive: [1] 0.003 | [2] 0.031 | [3] 0.018 | [4] 0.019 | Nexturastat A -0.076 | vemurafenib 0.017 | [5] 0.043 | [6] -0.025 | givinostat 0.002 | barasertib -0.011

RPL18 (UniProt Q07020)
inactive: [1] -0.002 | [2] 0 | [3] -0.099 | [4] -0.2 | Nexturastat A 0.381 | vemurafenib -0.29 | [5] -0.132 | [6] 0.195 | givinostat 0.177 | barasertib -0.228

RPS2 (UniProt P15880)
inactive: [1] 0.006 | [2] 0.009 | [3] -0.075 | [4] -0.036 | Nexturastat A 0.192 | vemurafenib -0.116 | [5] -0.099 | [6] 0.084 | givinostat -0.011 | barasertib -0.095

ROCK1 (UniProt Q13464)
inactive: [1] 0.003 | [2] -0.073 | [3] -0.016 | [4] -0.037 | Nexturastat A 0.093 | vemurafenib 0.052 | [5] 0.036 | [6] -0.019 | givinostat 0.031 | barasertib 0.021

RPS27L (UniProt Q71UM5)
inactive: [1] -0.007 | [2] 0.003 | [3] 0.04 | [4] 0.038 | Nexturastat A 0.1 | vemurafenib -0.002 | [5] 0.001 | [6] 0.031 | givinostat 0.034 | barasertib -0.043

RPA1 (UniProt P27694)
inactive: [1] 0.028 | [2] -0.047 | [3] -0.002 | [4] 0.05 | Nexturastat A 0.044 | vemurafenib 0.039 | [5] 0.125 | [6] 0.104 | givinostat 0.069 | barasertib 0.068

RPL35A (UniProt P18077)
inactive: [1] 0.052 | [2] -0.013 | [3] -0.065 | [4] -0.162 | Nexturastat A 0.319 | vemurafenib -0.269 | [5] -0.13 | [6] 0.2 | givinostat 0.189 | barasertib -0.206

RPL13A (UniProt P40429)
inactive: [1] 0.021 | [2] -0.022 | [3] -0.055 | [4] -0.19 | Nexturastat A 0.305 | vemurafenib -0.297 | [5] -0.17 | [6] 0.257 | givinostat 0.15 | barasertib -0.203

RPP40 (UniProt O75818)
inactive: [1] -0.029 | [2] -0.007 | [3] -0.013 | [4] 0.01 | Nexturastat A 0.013 | vemurafenib -0.046 | [5] -0.031 | [6] 0.009 | givinostat 0.003 | barasertib -0.031

RPL36AL (UniProt Q969Q0)
inactive: [1] -0.003 | [2] 0.017 | [3] -0.046 | [4] -0.128 | Nexturastat A 0.101 | vemurafenib -0.19 | [5] -0.045 | [6] 0.302 | givinostat 0.023 | barasertib -0.168

RPS6KA2 isoform 2 (UniProt Q15349)
inactive: [1] -0.087 | [2] -0.229 | [3] 0.159 | [4] 0.011 | Nexturastat A 0.009 | vemurafenib 0.037 | [5] 0.026 | [6] 0.023 | givinostat -0.148 | barasertib 0.064

RPL27 (UniProt P61353)
inactive: [1] -0.002 | [2] -0.006 | [3] -0.084 | [4] -0.176 | Nexturastat A 0.341 | vemurafenib -0.137 | [5] -0.038 | [6] 0.2 | givinostat 0.1 | barasertib -0.218

RPS15 (UniProt P62841)
inactive: [1] -0.014 | [2] 0.038 | [3] -0.146 | [4] 0.005 | Nexturastat A 0.285 | vemurafenib -0.117 | [5] -0.175 | [6] 0.1 | givinostat -0.041 | barasertib -0.125

RPL23A (UniProt P62750)
inactive: [1] 0.021 | [2] 0 | [3] -0.09 | [4] -0.125 | Nexturastat A 0.243 | vemurafenib -0.105 | [5] -0.101 | [6] 0.193 | givinostat 0.024 | barasertib -0.149

RPAP1 (UniProt Q9BWH6)
inactive: [1] -0.033 | [2] 0.007 | [3] -0.007 | [4] 0.009 | Nexturastat A -0.088 | vemurafenib 0.026 | [5] 0.006 | [6] -0.017 | givinostat 0.01 | barasertib 0.027

RPAP3 (UniProt Q9H6T3)
inactive: [1] 0.062 | [2] -0.03 | [3] -0.015 | [4] 0.042 | Nexturastat A 0.058 | vemurafenib 0.007 | [5] 0.026 | [6] 0 | givinostat 0.046 | barasertib 0.027

RPLP2 (UniProt P05387)
inactive: [1] -0.054 | [2] 0 | [3] -0.109 | [4] -0.161 | Nexturastat A 0.338 | vemurafenib -0.056 | [5] -0.088 | [6] 0.221 | givinostat 0.038 | barasertib -0.151

RPL21 (UniProt P46778)
inactive: [1] 0.034 | [2] -0.002 | [3] -0.163 | [4] -0.235 | Nexturastat A 0.624 | vemurafenib -0.353 | [5] -0.146 | [6] 0.163 | givinostat 0.152 | barasertib -0.151

RPL22 (UniProt P35268)
inactive: [1] -0.023 | [2] 0.04 | [3] -0.083 | [4] -0.072 | Nexturastat A 0.247 | vemurafenib -0.063 | [5] -0.015 | [6] 0.109 | givinostat 0.029 | barasertib -0.058

RRM2 isoform 2 (UniProt P31350)
inactive: [1] 0.002 | [2] -0.008 | [3] 0.025 | [4] 0.034 | Nexturastat A -0.001 | vemurafenib 0.021 | [5] 0.013 | [6] -0.033 | givinostat -0.07 | barasertib -0.027

RPL6 (UniProt Q02878)
inactive: [1] 0.033 | [2] -0.001 | [3] -0.073 | [4] -0.171 | Nexturastat A 0.545 | vemurafenib -0.295 | [5] -0.107 | [6] 0.255 | givinostat 0.18 | barasertib -0.211

RRAS2 isoform 4 (UniProt P62070)
inactive: [1] -0.016 | [2] -0.02 | [3] -0.009 | [4] -0.021 | Nexturastat A -0.015 | vemurafenib 0.011 | [5] -0.037 | [6] -0.034 | givinostat -0.017 | barasertib -0.049

RPL23 (UniProt P62829)
inactive: [1] 0.014 | [2] 0.026 | [3] -0.032 | [4] -0.051 | Nexturastat A 0.199 | vemurafenib -0.074 | [5] -0.087 | [6] 0.111 | givinostat 0.029 | barasertib -0.063

RPS28 (UniProt P62857)
inactive: [1] 0.02 | [2] 0.032 | [3] -0.091 | [4] -0.004 | Nexturastat A 0 | vemurafenib -0.088 | [5] -0.155 | [6] 0.001 | givinostat -0.031 | barasertib 0.005

Random excerpt: 2 entries already listed
RPL6 (UniProt Q02878)
inactive: [1] 0.033 | [2] -0.001 | [3] -0.073 | [4] -0.171 | Nexturastat A 0.545 | vemurafenib -0.295 | [5] -0.107 | [6] 0.255 | givinostat 0.18 | barasertib -0.211

RRM2 isoform 2 (UniProt P31350)
inactive: [1] 0.002 | [2] -0.008 | [3] 0.025 | [4] 0.034 | Nexturastat A -0.001 | vemurafenib 0.021 | [5] 0.013 | [6] -0.033 | givinostat -0.07 | barasertib -0.027

Remaining list, next part

RPAIN isoform 8 (UniProt Q86UA6)
inactive: [1] 0.009 | [2] 0.038 | [3] -0.098 | [4] 0.136 | Nexturastat A -0.017 | vemurafenib -0.062 | [5] 0.042 | barasertib 0.029

RPL10 (UniProt P27635)
inactive: [1] 0.035 | [2] -0.007 | [3] -0.033 | [4] -0.151 | Nexturastat A 0.327 | vemurafenib -0.239 | [5] -0.111 | [6] 0.223 | givinostat -0.01 | barasertib -0.169

RPL14 (UniProt P50914)
inactive: [1] 0.043 | [2] -0.021 | [3] -0.11 | [4] -0.119 | Nexturastat A 0.38 | vemurafenib -0.297 | [5] -0.148 | [6] 0.307 | givinostat 0.068 | barasertib -0.221
